Data taken from PubChem BioAssay AID330 (DTP/NCI, 2004).
The list shows only some results of the screen, not a fair sample: its compounds were picked by chemical class. Not every dose and run of a compound is shown. T/C gives the treated animals as a percentage of the vehicle group. Some entries give survivors of the animals treated and no T/C: the source files T/C as zero there, which appears to mark a toxic dose or a test without result, not a measured value. Some doses without a T/C left all or most animals alive at the check, yet need not have been tolerated: the source hardly ever lists a survival T/C far under the control, and the zero likely stands for such cases as well. Survivors were counted at the toxicity check, usually on the fifth day, unless a day is given; later deaths do not show. Schedules are NCI's codes, taken here to give the interval after Q, in days (D) or hours (H), and the number of doses after X. Where survival is the endpoint, this PubChem deposit counts one and a half times the control or more as active, and values a quarter to a half above the control carry no call in these data; other NCI protocols may use other cut-offs. Some T/C values are followed by the survivors on the day toxicity was checked, most often the fifth; without a count or a note in brackets, all were alive then. Some entries were tested several times; their values stand side by side, smallest first.

Test system: P388 leukemia ip, CD2F1 mice, survival T/C
Assay: NCI In Vivo Anticancer Drug Screen. Data for tumor model P388 Leukemia (intraperitoneal) in CD2F1 (CDF1) mice
Details: T/C endpoint: median survival time, higher T/C = longer survival

## Nc1cc([As](=O)(O)O)ccc1O
dose: 1.56 mg/kg/injection, schedule: Q01DX009 (ip), vehicle: saline
  T/C: 90 % of control
dose: 3.12 mg/kg/injection, schedule: Q01DX009 (ip), vehicle: saline
  T/C: 96 % of control
dose: 6.25 mg/kg/injection, schedule: Q01DX009 (ip), vehicle: saline
  T/C: 94 % of control
dose: 12.5 mg/kg/injection, schedule: Q01DX009 (ip), vehicle: saline
  T/C: 93 % of control
dose: 25.0 mg/kg/injection, schedule: Q01DX009 (ip), vehicle: saline
  T/C: 94 % of control
dose: 50.0 mg/kg/injection, schedule: Q01DX009 (ip), vehicle: saline
  T/C: 94 % of control
dose: 100.0 mg/kg/injection, schedule: Q01DX009 (ip), vehicle: saline
  T/C: 97, 102, 104 % of control
dose: 200.0 mg/kg/injection, schedule: Q01DX009 (ip), vehicle: saline
  T/C: 102 and 108 % of control
dose: 400.0 mg/kg/injection, schedule: Q01DX009 (ip), vehicle: saline
  T/C: 108 and 111 % of control
dose: 600.0 mg/kg/injection, schedule: Q01DX009 (ip), vehicle: saline
  T/C: 100 and 101 % of control [5 of 6 alive]

## O=[N+]([O-])CCC([N+](=O)[O-])([N+](=O)[O-])[N+](=O)[O-]
dose: 100.0 mg/kg/injection, schedule: Q04DX003 (ip), vehicle: saline
  T/C: 90 % of control [5 of 6 alive]
dose: 200.0 mg/kg/injection, schedule: Q04DX003 (ip), vehicle: saline
  T/C: 92 % of control
dose: 400.0 mg/kg/injection, schedule: Q04DX003 (ip), vehicle: saline
  T/C: 92 % of control

## O=[N+]([O-])c1cc([N+](=O)[O-])c([O-])c([N+](=O)[O-])c1.c1ccc(-c2ccc3c[n+]4ccccc4cc3c2)cc1
dose: 12.5 mg/kg/injection, schedule: Q01DX005 (ip), vehicle: Klucel (hydroxypropylcellulose) (HPC)
  T/C: 97 % of control
dose: 25.0 mg/kg/injection, schedule: Q01DX005 (ip), vehicle: Klucel (hydroxypropylcellulose) (HPC)
  T/C: 97 % of control
dose: 50.0 mg/kg/injection, schedule: Q01DX005 (ip), vehicle: Klucel (hydroxypropylcellulose) (HPC)
  T/C: 94 % of control
dose: 100.0 mg/kg/injection, schedule: Q01DX005 (ip), vehicle: Klucel (hydroxypropylcellulose) (HPC)
  T/C: 103 % of control

## CC[P+]1(c2ccccc2)CCC(C)c2ccccc21.F[P-](F)(F)(F)(F)F (configuration not stated)
dose: 1.56 mg/kg/injection, schedule: Q04DX002 (ip), vehicle: saline
  T/C: 108 % of control
dose: 3.13 mg/kg/injection, schedule: Q04DX002 (ip), vehicle: saline
  T/C: 106 % of control [5 of 6 alive]
dose: 6.25 mg/kg/injection, schedule: Q04DX002 (ip), vehicle: saline with Tween-80
  survivor count: 6 of 6
dose: 6.25 mg/kg/injection, schedule: Q04DX002 (ip), vehicle: saline
  T/C: 121 % of control
dose: 12.5 mg/kg/injection, schedule: Q04DX002 (ip), vehicle: saline with Tween-80
  survivor count: 3 of 6
dose: 25.0 mg/kg/injection, schedule: Q04DX002 (ip), vehicle: saline with Tween-80
  survivor count: 0 of 6

## O=C(CI)Nc1ccc(N(CCCl)CCCl)cc1
dose: 50.0 mg/kg/injection, schedule: Q01DX001 (ip), vehicle: Klucel (hydroxypropylcellulose) (HPC)
  T/C: 117 % of control
dose: 100.0 mg/kg/injection, schedule: Q01DX001 (ip), vehicle: Klucel (hydroxypropylcellulose) (HPC)
  T/C: 116 % of control
dose: 200.0 mg/kg/injection, schedule: Q01DX001 (ip), vehicle: Klucel (hydroxypropylcellulose) (HPC)
  T/C: 115 % of control

## O=[N+]([O-])c1cc([N+](=O)[O-])c(O)c([N+](=O)[O-])c1.c1csc(C2CCCN2)c1
dose: 60.0 mg/kg/injection, schedule: Q01DX005 (ip), vehicle: saline with Tween-80
  T/C: 100 % of control
dose: 120.0 mg/kg/injection, schedule: Q01DX005 (ip), vehicle: saline with Tween-80
  T/C: 107 % of control
dose: 240.0 mg/kg/injection, schedule: Q01DX005 (ip), vehicle: saline with Tween-80
  survivor count: 0 of 6

## COc1cc([N+](=O)[O-])c([N+](=O)[O-])cc1N
dose: 60.0 mg/kg/injection, schedule: Q01DX005 (ip), vehicle: saline
  T/C: 101 % of control
dose: 120.0 mg/kg/injection, schedule: Q01DX005 (ip), vehicle: saline
  T/C: 103 % of control
dose: 240.0 mg/kg/injection, schedule: Q01DX005 (ip), vehicle: saline
  T/C: 101 % of control
